Measurements as given in patent US20020160975A1, “Conserved XIAP-interaction motif in caspase-9 and Smac/DIABLO for mediating apoptosis” (Thomas Jefferson University, priority 2001, published 2002).
No constants are given. Whether binding was seen depends on the method and setting. Binding seen in cells or lysates may run through a third protein. Some results given as binding are weak or reduced against the parent protein; the word gives no strength.

Protein sequences, listed by entry. Tags and fused reporters are not part of them. Lines headed by an entry give the natural chain unless they say otherwise; changes in a name come on top.
UniProt P98170: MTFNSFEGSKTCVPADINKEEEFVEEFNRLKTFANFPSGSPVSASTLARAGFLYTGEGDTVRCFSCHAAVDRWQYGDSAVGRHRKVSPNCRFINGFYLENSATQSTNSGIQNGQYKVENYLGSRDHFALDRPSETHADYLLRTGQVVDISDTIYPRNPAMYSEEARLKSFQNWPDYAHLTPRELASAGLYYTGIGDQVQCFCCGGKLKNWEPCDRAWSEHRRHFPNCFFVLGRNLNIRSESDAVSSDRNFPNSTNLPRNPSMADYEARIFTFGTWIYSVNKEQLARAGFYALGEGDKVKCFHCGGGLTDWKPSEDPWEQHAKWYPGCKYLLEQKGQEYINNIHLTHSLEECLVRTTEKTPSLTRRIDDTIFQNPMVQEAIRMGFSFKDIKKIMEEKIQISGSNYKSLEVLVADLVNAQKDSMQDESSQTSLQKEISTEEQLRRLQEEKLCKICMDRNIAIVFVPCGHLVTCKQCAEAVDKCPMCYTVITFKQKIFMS
UniProt P55211: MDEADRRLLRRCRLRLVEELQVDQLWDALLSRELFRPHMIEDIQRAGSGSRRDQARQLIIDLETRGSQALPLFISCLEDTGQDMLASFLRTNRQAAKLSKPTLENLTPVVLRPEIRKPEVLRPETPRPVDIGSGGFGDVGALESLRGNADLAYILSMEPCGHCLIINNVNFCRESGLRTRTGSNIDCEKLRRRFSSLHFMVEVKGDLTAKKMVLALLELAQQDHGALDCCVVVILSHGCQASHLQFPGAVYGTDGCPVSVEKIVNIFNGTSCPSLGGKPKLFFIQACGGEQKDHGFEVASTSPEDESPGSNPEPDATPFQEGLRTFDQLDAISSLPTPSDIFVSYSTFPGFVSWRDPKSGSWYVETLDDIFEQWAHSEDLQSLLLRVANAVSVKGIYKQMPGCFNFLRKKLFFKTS

Biological target: X-linked inhibitor of apoptosis protein (XIAP), full length (UniProt P98170)
Assay: GST pull-down of 35S-labeled XIAP

**Q.** For “Caspase-9-p12 C-terminal GST fusion protein (residues 316-416 of SEQ ID NO:1) (from UniProt P55211 316-416)”, which binding is on record?
**A.** binds
